Data as given in PubChem BioAssay AID743121 (NCATS, 2013)
Test: 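Genes whose silencing strengthens cell killing by camptothecin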 (primary screen). Cell system: MDA-MB-231 cells, a human breast cancer line. Knock-down reagent: single siRNA against human genes, 20 nM siRNA (0.8 pmol per well). Duration: 120 h (drug added 48 h after transfection, read 72 h later). Conditions: camptothecin 20 nM (about EC30) for 72 h; vehicle 0.1% DMSO in parallel plates. Measured: 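CellTiter-Glo ATP signal, scaled to control siRNA as percent viability; sensitisation given as log2 of untreated divided by camptothecin-treated viability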. Reading the numbers: log2 vehicle/camptothecin viability: higher = stronger sensitisation to camptothecin. Call rule: 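Each gene scored by redundant siRNA activity (RSA) over its individual siRNA ratios; a gene is called active at p < 0.001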.
Here is an unselected part of about 26,000 reagents tested. Over the whole deposit, 167 (0.63%) got an active call. 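Calls are per gene from RSA p-values that are not deposited; an individual active-marked siRNA can sensitise only weakly.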 Unmarked entries are inactive. Reagents against one gene are numbered here. Not all columns of the deposit are shown. Reagent sequences are not shown.

| Gene | reagent | log2 vehicle/camptothecin viability |
| --- | --- | --- |
| CHUK | 1 | -0.336 |
| CHUK | 2 | -0.131 |
| CHUK | 3 | -0.386 |
| CHUK | 4 | -0.218 |
| TNFRSF12A (TNF receptor superfamily member 12A) | 1 | -0.25 |
| TNFRSF12A (TNF receptor superfamily member 12A) | 2 | -0.243 |
| TNFRSF12A (TNF receptor superfamily member 12A) | 3 | -0.0826 |
| TNFRSF12A (TNF receptor superfamily member 12A) | 4 | -0.258 |
| ZNF598 (zinc finger protein 598, E3 ubiquitin ligase) | 1 | -0.0462 |
| ZNF598 (zinc finger protein 598, E3 ubiquitin ligase) | 2 | -0.252 |
| ZNF598 (zinc finger protein 598, E3 ubiquitin ligase) | 3 | 0.381 |
| ZNF598 (zinc finger protein 598, E3 ubiquitin ligase) | 4 | -0.338 |
| SCUBE3 (signal peptide, CUB domain and EGF like domain containing 3) | 1 | 0.452 |
| SCUBE3 (signal peptide, CUB domain and EGF like domain containing 3) | 2 | -0.0968 |
| SCUBE3 (signal peptide, CUB domain and EGF like domain containing 3) | 3 | -0.313 |
| SCUBE3 (signal peptide, CUB domain and EGF like domain containing 3) | 4 | -0.176 |
| PELP1 (proline, glutamate and leucine rich protein 1) | 1 | -0.195 |
| PELP1 (proline, glutamate and leucine rich protein 1) | 2 | -0.573 |
| PELP1 (proline, glutamate and leucine rich protein 1) | 3 | -0.528 |
| PELP1 (proline, glutamate and leucine rich protein 1) | 4 | -0.00803 |
| SPSB2 (splA/ryanodine receptor domain and SOCS box containing 2) | 1 | -0.0515 |
| SPSB2 (splA/ryanodine receptor domain and SOCS box containing 2) | 2 | 0.791 |
| SPSB2 (splA/ryanodine receptor domain and SOCS box containing 2) | 3 | -0.14 |
| PSMB2 (proteasome 20S subunit beta 2) | 1 | -0.138 |
| PSMB2 (proteasome 20S subunit beta 2) | 2 | -0.657 |
| PSMB2 (proteasome 20S subunit beta 2) | 3 | 0.275 |
| PSMB2 (proteasome 20S subunit beta 2) | 4 | 0.023 |
| UBA7 (ubiquitin like modifier activating enzyme 7) | 1 | -0.0829 |
| UBA7 (ubiquitin like modifier activating enzyme 7) | 2 | 0.0154 |
| UBA7 (ubiquitin like modifier activating enzyme 7) | 3 | 0.0541 |

Entries listed so far whose target name starts with P or p (8):
| Gene | reagent | log2 vehicle/camptothecin viability |
| --- | --- | --- |
| PELP1 (proline, glutamate and leucine rich protein 1) | 1 | -0.195 |
| PELP1 (proline, glutamate and leucine rich protein 1) | 2 | -0.573 |
| PELP1 (proline, glutamate and leucine rich protein 1) | 3 | -0.528 |
| PELP1 (proline, glutamate and leucine rich protein 1) | 4 | -0.00803 |
| PSMB2 (proteasome 20S subunit beta 2) | 1 | -0.138 |
| PSMB2 (proteasome 20S subunit beta 2) | 2 | -0.657 |
| PSMB2 (proteasome 20S subunit beta 2) | 3 | 0.275 |
| PSMB2 (proteasome 20S subunit beta 2) | 4 | 0.023 |

Next reagents follow.
| Gene | reagent | log2 vehicle/camptothecin viability |
| --- | --- | --- |
| NTMT1 (N-terminal Xaa-Pro-Lys N-methyltransferase 1) | 1 | -0.289 |
| NTMT1 (N-terminal Xaa-Pro-Lys N-methyltransferase 1) | 2 | 0.0264 |
| NTMT1 (N-terminal Xaa-Pro-Lys N-methyltransferase 1) | 3 | -0.119 |
| NTMT1 (N-terminal Xaa-Pro-Lys N-methyltransferase 1) | 4 | -0.599 |
| SEC11B | 1 | 0.147 |
| SEC11B | 2 | 0.0351 |
| SEC11B | 3 | -0.0726 |
| PTPRZ1 (protein tyrosine phosphatase receptor type Z1) | 1 | -0.295 |
| PTPRZ1 (protein tyrosine phosphatase receptor type Z1) | 2 | -0.454 |
| PTPRZ1 (protein tyrosine phosphatase receptor type Z1) | 3 | 0.195 |
| PTPRZ1 (protein tyrosine phosphatase receptor type Z1) | 4 | -0.556 |
| SLC25A13 | 1 | 0.24 |
| SLC25A13 | 2 | -0.193 |
| SLC25A13 | 3 | -0.106 |
| ANKRD60 (ankyrin repeat domain 60) | 1 | -0.29 |
| ANKRD60 (ankyrin repeat domain 60) | 2 | -0.0995 |
| ANKRD60 (ankyrin repeat domain 60) | 3 | -0.0393 |
| CSNK1G2 (casein kinase 1 gamma 2) | 1 | -0.305 |
| CSNK1G2 (casein kinase 1 gamma 2) | 2 | 0.218 |
| CSNK1G2 (casein kinase 1 gamma 2) | 3 | -0.407 |
| CSNK1G2 (casein kinase 1 gamma 2) | 4 | -0.0823 |
| CDX2 (caudal type homeobox 2) | 1 | 0.159 |
| CDX2 (caudal type homeobox 2) | 2 | -0.328 |
| CDX2 (caudal type homeobox 2) | 3 | -0.286 |
| GABRA1 (gamma-aminobutyric acid type A receptor subunit alpha1) | 1 | -0.727 |
| GABRA1 (gamma-aminobutyric acid type A receptor subunit alpha1) | 2 | 0.103 |
| GABRA1 (gamma-aminobutyric acid type A receptor subunit alpha1) | 3 | 0.244 |
| GABRA1 (gamma-aminobutyric acid type A receptor subunit alpha1) | 4 | 0.222 |
| GRIA4 (glutamate ionotropic receptor AMPA type subunit 4) | 1 | 0.0587 |
| GRIA4 (glutamate ionotropic receptor AMPA type subunit 4) | 2 | -0.0337 |
| GRIA4 (glutamate ionotropic receptor AMPA type subunit 4) | 3 | 0.456 |
| TRIM28 (tripartite motif containing 28) | 1 | -0.485 |
| TRIM28 (tripartite motif containing 28) | 2 | -0.685 |
| TRIM28 (tripartite motif containing 28) | 3 | -0.442 |
| TRIM28 (tripartite motif containing 28) | 4 | -0.584 |
| NLGN4X (neuroligin 4 X-linked) | 1 | 0.00289 |
| NLGN4X (neuroligin 4 X-linked) | 2 | -0.0925 |
| NLGN4X (neuroligin 4 X-linked) | 3 | 0.122 |
